This passage reports TEAD-luciferase reporter activity results from the supplement of paper PMC10735217.

The subject of the assay is HEK293A TEAD-LUC reporter. The assay can be described thus: TEAD-luciferase reporter activity (YAP activation), robust Z score vs plate; higher = stronger YAP/TEAD activation. The note with it: 24 h. (Reporter assays use an easily measured gene product as a stand-in for the process of interest.)

Structures can show the parent of a compound that is named as a salt. This is one part of the list. This data set is noisy: repeats of one test often differ as much as different tests do.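 Human kidney-derived cells stably carry a construct in which eight TEAD-binding elements drive luciferase, measured by luminescence in a drug-repurposing library screen. A hit is any compound whose signal exceeds the plate mean by more than five robust Z scores.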

Turning to `Nc1ncnc2c([C@@H]3N[C@H](CO)[C@@H](O)[C@H]3O)c[nH]c12` [Galidesivir], the TEAD-luciferase reporter activity was inactive: -1.32 (compound concentration: 200 nM), inactive: -1.07 (compound concentration: 2 uM) and inactive: 0.459 (compound concentration: 10 uM).
Taken in the same sequence, the figures for `CS(=O)(=O)c1ccc(-c2nc3n(c2-c2ccncc2)CCC3)cc1` were inactive: -0.335, inactive: 0.308 and inactive: 0.852.
Take `CC(=O)CCc1nc(N)c2nc(-n3nccn3)n(C)c2n1`: the TEAD-luciferase reporter activity is inactive: 2.12 (compound concentration: 200 nM), inactive: -1.04 (compound concentration: 2 uM) and inactive: -0.708 (compound concentration: 10 uM).
Taken in the same sequence, the figures for `O=C(c1ccc(F)cc1)C1CCN(CCCCn2c(=O)[nH]c3ccccc3c2=O)CC1` were inactive: -0.0738, inactive: 0.589 and inactive: 0.616.
Regarding `Cc1c2ccnc(C(=O)NCCN(C)C)c2cc2c3cc(O)ccc3n(C)c12`, the TEAD-luciferase reporter activity is inactive: -1.18 (compound concentration: 200 nM), inactive: 2.53 (compound concentration: 2 uM) and inactive: 2.8 (compound concentration: 10 uM).
The like results for `NCCCC[C@@H](N)C(=O)N[C@H](CO)C(=O)O` were, in that order, inactive: 1.14, inactive: -0.776 and inactive: -1.35.
The like results for `CCCCCCCCCCCCC(=O)N1CCCCC1CNC(=O)[C@@H](N)CCCCN` (some centres not stated) were, in that order, inactive: -0.561, inactive: -1.43 and inactive: -0.505.
As for `CC(C)(C)C(=O)NC1CCN(c2nc3ncccc3o2)CC1`, the TEAD-luciferase reporter activity is inactive: 3.63 (compound concentration: 200 nM) and inactive: 0.905 (compound concentration: 10 uM).
`CC12CCC(=O)C=C1CCC1C2CCC2(C)C1CC[C@]2(O)C(=O)CO` (some centres not stated) [cortodoxone]: the TEAD-luciferase reporter activity (compound concentration: 200 nM) was inactive: -0.0568, the TEAD-luciferase reporter activity (compound concentration: 2 uM) was inactive: -2.47 and the TEAD-luciferase reporter activity (compound concentration: 10 uM) is inactive: 1.35.
Taken in the same sequence, the figures for `CC(C)(O)CC(=O)NCCn1ccc2ncnc(Nc3ccc(Oc4cccc(C(F)(F)F)c4)c(Cl)c3)c21` were inactive: -0.827, inactive: -1.75 and inactive: -1.4.
The like results for `C[C@H]1SC[C@]2(O1)CN1CC[C@H]2CC1` [cevimeline hydrochloride] were, in that order, inactive: 1.26, inactive: -0.945 and inactive: 1.19.
For `CC(=O)OCn1ncc2c(O)ncnc21`, the TEAD-luciferase reporter activity (compound concentration: 200 nM) is inactive: -0.608, the TEAD-luciferase reporter activity (compound concentration: 2 uM) is inactive: -1.82 and the TEAD-luciferase reporter activity (compound concentration: 10 uM) is inactive: 0.0866.
For the compound `CCCCCCCCc1ccc(CCC(N)(CO)CO)cc1` [fingolimod hydrochloride], the TEAD-luciferase reporter activity reads like this: (compound concentration: 200 nM) inactive: -0.597; (compound concentration: 2 uM) inactive: -1.49; (compound concentration: 10 uM) inactive: 3.42.
In the case of `CC(=O)N1Cc2ccccc2CC12CCCN(C(=O)CCCN(C)C)C2` (configuration not stated), the TEAD-luciferase reporter activity is, setting by setting: (compound concentration: 200 nM) inactive: -0.757; (compound concentration: 10 uM) active: 5.88.
For the compound `CCOc1cc(OCC)c(C(=O)CCC(=O)O)cc1OCC` [trepibutone], the TEAD-luciferase reporter activity is inactive: 1.14 (compound concentration: 200 nM), inactive: -1.51 (compound concentration: 2 uM) and inactive: 1.02 (compound concentration: 10 uM).
Taken in the same sequence, the figures for `Cc1c(C)c2ccc(OCCCN3CCN(Cc4ccc(Cl)cc4)CC3)cc2oc1=O` were inactive: -1.01, inactive: 3 and inactive: -0.205.
As to `COc1ccccc1OC1(C)OC(=O)c2ccccc2O1` (configuration not stated) [guaimesal], the TEAD-luciferase reporter activity runs as follows: (compound concentration: 200 nM) inactive: -1.44; (compound concentration: 2 uM) inactive: -1.07; (compound concentration: 10 uM) inactive: -0.936.
On to `O=C1c2ccccc2CN1C1CCN(Cc2ccc(C(F)(F)F)cc2)CC1`, for which the TEAD-luciferase reporter activity reads like this: (compound concentration: 200 nM) inactive: 1.64; (compound concentration: 10 uM) active: 27.6.
As to `Cc1ncc([N+](=O)[O-])n1CCc1ccncc1`, the TEAD-luciferase reporter activity runs as follows: (compound concentration: 200 nM) inactive: -1.48; (compound concentration: 2 uM) inactive: -1.08; (compound concentration: 10 uM) inactive: 0.395.
As for `CC(=O)c1ccc(S(=O)(=O)NC(=O)NC2CCCCC2)cc1`, the TEAD-luciferase reporter activity is, setting by setting: (compound concentration: 200 nM) inactive: -0.438; (compound concentration: 10 uM) inactive: -1.44.
As to `CC(=O)c1ccc(S(=O)(=O)NC(=O)NC2CCCCC2)cc1` [Acetohexamide], the TEAD-luciferase reporter activity (compound concentration: 2 uM) was inactive: 0.624.
With `CCC1OC(=O)C(C)(F)C(=O)C(C)C(OC2OC(C)CC(N(C)C)C2O)C(C)(OC)CC(C)C(=O)C(C)C2N(CCCCn3cc(-c4cccc(N)c4)nn3)C(=O)OC12C` (configuration not stated) [solithromycin], the TEAD-luciferase reporter activity is, setting by setting: (compound concentration: 200 nM) inactive: 0.453; (compound concentration: 2 uM) inactive: -0.726; (compound concentration: 10 uM) inactive: 0.611.
The like results for `CCCCCCCCCCCC1=C(O)C(=O)C=C(O)C1=O` were, in that order, inactive: 0.574, inactive: -0.292 and inactive: 0.236.
The like results for `COC(=O)Nc1nc2cc(S(=O)c3ccccc3)ccc2[nH]1` (configuration not stated) were, in that order, inactive: -0.0289, inactive: 0.676 and inactive: -0.859.
The like results for `C(=C\[C@@H]1CCNC1)/c1cncnc1` were, in that order, inactive: -0.154, inactive: -0.543 and inactive: -0.256.
As to `CCOC(=O)CCS[C@@H](CC(=O)OCC)c1ccccc1CCCCCCCCc1ccccc1`, the TEAD-luciferase reporter activity by setting is: (compound concentration: 200 nM) inactive: 0.102; (compound concentration: 2 uM) inactive: -0.0082; (compound concentration: 10 uM) inactive: -1.36.
